## Screening data, single-dose tests

By UniProt entry, the sequences of proteins in these tests, tags left out. Residues count along the entry.
UniProt Q4DA54, 1-478: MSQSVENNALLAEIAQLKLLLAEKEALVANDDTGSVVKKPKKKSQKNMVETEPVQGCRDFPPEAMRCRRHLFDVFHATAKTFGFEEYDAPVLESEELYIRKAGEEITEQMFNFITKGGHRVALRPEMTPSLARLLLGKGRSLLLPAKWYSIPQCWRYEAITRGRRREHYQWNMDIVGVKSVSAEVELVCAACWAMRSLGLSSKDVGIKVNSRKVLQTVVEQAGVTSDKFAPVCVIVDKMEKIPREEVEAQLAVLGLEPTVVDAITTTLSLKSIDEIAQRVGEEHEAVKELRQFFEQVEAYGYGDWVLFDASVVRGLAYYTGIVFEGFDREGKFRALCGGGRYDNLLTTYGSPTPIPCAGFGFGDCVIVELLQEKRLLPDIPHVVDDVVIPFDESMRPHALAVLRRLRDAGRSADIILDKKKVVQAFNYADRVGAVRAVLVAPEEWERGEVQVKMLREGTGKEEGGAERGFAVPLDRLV
UniProt P9WNZ1, whole entry: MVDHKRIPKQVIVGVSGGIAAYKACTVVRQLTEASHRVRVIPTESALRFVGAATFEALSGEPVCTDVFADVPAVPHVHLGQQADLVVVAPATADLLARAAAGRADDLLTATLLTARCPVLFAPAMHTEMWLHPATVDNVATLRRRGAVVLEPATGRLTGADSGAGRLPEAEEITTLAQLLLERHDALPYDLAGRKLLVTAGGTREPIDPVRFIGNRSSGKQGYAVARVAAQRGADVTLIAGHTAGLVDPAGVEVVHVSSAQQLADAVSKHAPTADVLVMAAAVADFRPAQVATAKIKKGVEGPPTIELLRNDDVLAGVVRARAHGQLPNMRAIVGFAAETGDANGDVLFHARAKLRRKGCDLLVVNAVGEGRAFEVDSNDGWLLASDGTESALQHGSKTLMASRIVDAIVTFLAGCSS

Data taken from ChEMBL document CHEMBL3988442, “University of Dundee, Small-Polar-MMV Screening Library” (2021).

TcHisRS: 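Histidine-tRNA ligase, Trypanosoma cruzi CL Brener (UniProt Q4DA54). Enzyme assay of histidyl-tRNA synthetase; the read-out is not stated. Concentration: 30 µM. The record gives no direction; compounds that gave an IC50 in retests scored well above the rest, so higher reads as stronger inhibition. About 69,000 compounds were tested under these conditions; 0.045% (about 31) showed 50% or more at least once.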
CoaBC: 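Enzyme assay of CoaBC with a phosphate dye (Biomol Green) read at 650 nm. Target: Coenzyme A biosynthesis protein CoaBC, Mycobacterium tuberculosis (UniProt P9WNZ1). Concentration: 30 µM. Direction is inferred from only a few compounds that gave an IC50; most scored high, so higher reads as stronger inhibition. Most strong results did not repeat in a second test. Of about 67,000 compounds tested this way, about 40 (0.06%) reached 50% or more in at least one test.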

Values are the deposited “Percent Effect”, in %. The controls that fix the scale are not given in the record; negative values are as filed. This is an unselected part of the compounds tested. A dash means the value is not listed here; it may have been measured.

structure,TcHisRS,CoaBC
CCCOc1ccccc1NCC(=O)Nc1ccc(CC)cc1,-1.031,2.123
O=C(c1cscn1)N1CCN2C[C@H](OCc3cccnc3)C[C@H]2C1,4.918,17.62
c1ccc2sc(CN3CCOC(Cn4cncn4)C3)nc2c1 (stereo not drawn),6.015,2.254
Cn1ccnc1SCC(=O)NCCC1CCCO1 (stereo not drawn),0,-
Cc1cc(N2CCC(NC(C)Cc3ccsc3)CC2)nc(N)n1 (stereo not drawn),4.938,4.914
CC(Nc1ccc(CN2CCCC2=O)cc1)C(=O)N(C)CCC#N (stereo not drawn),-0.8403,8.468
CN(Cc1cc(-c2ccncc2)no1)C(=O)[C@@H]1CSCN1C,6.579,-
CC(=O)c1c(C)cc(C)c(CS(=O)(=O)c2nccn2C)c1C,1.478,6.329
COCc1ccc(C(=O)N2CCN(CC3CC3)[C@@H]3CS(=O)(=O)C[C@@H]32)o1,3.804,-4.132
CCn1c(C2CCN(C(=O)c3cc(CC(C)C)no3)CC2)nn(C)c1=O,12.87,10.68
CSc1nnc(C2CCN(C(=O)N3CCOCC3)CC2)n1C(C)C,1.916,-4.306
Cc1cccc(N2CCN(C(=O)NC(C)c3nncn3C)CC2)c1C (stereo not drawn),3.955,0.7833
COc1cnc(N2CCC(c3ncc[nH]3)CC2)nc1,0.5236,-10.49
O=C(NCCNS(=O)(=O)C1CCCCC1)c1ccccc1,7.921,0.4819
O=C(c1ccco1)N1CC[C@H]2[C@H]1CCN2S(=O)(=O)C1CC1,-1.149,0.611
CCOc1cc(C(=O)N2CCOCC2)cc2occc12,3.125,0.2551
COC1CCC[C@@H]2CN(Cc3csc(C)n3)C[C@H]12 (stereo partly drawn),16.49,-0.4926
O=C(c1ccccc1)N1CCC2(CCCN2c2ncccn2)CC1,13.07,1.777
CC(C)C(=O)N1CCC(C)(c2cc(O)[nH]n2)CC1,11.65,13.75
Clc1cc(NCc2nccs2)nc2[nH]ccc12,8.458,4.642
O=C(C[C@H]1[C@H]2CN(C(=O)CO)C[C@@H]12)Nc1cccnc1,0,3.87
COc1cc(C2SCC(=O)Nc3n[nH]cc32)cc(OC)c1O (stereo not drawn),2.484,5.443
CSCCC(C)(O)CNC(=O)c1ccsc1 (stereo not drawn),3.093,4.017
O=C(c1cccc(CO)n1)N1CCCC1c1nc2cc(F)ccc2[nH]1 (stereo not drawn),2.232,3.571
Cc1cc(C)cc(OCC(O)CN2CCN(c3nccs3)CC2)c1 (stereo not drawn),11.67,-2.066
CCn1cc(NC(=O)C(C)n2ncc(Cl)c2C)c(C(=O)OC)n1 (stereo not drawn),1.327,0.2336
CCc1ncc2c(n1)CN(CCCOc1ccc(C#N)cc1)CC2,19.19,-0.6483
Cc1ccc(N(CC(=O)N2CCCCC2)C(=O)C2COCCO2)cc1 (stereo not drawn),1.064,2.664
COCCOCC(=O)Nc1nc2c(OC)cc(F)cc2s1,6.077,-0.3822
Cc1n[nH]c(SCCNC2CCN(c3nc4ccccc4s3)CC2)n1,9.836,-4.156
CN(C)C(=O)N1CCC2(CCCN(Cc3cnn(C)c3)C2)C1 (stereo not drawn),2.762,8.226
COc1ccccc1-c1nnc([C@H]2CCN(C(C)=O)C2)o1,9.901,11.51
CCNC(=O)NC(=O)CN1CCOC(c2ccc(Br)cc2)C1 (stereo not drawn),1.571,-5.782
CCCc1nnc(NC(=O)NC(C)Cn2cccn2)s1 (stereo not drawn),5.714,-0.9558
Cc1nn(C)c(Cl)c1C1CCCN1C(=O)c1ccc[nH]1 (stereo not drawn),-0.2865,1.615
CN1CCC(c2cc(CCO)ncn2)C1 (stereo not drawn),10,15.2
CC(C)c1ocnc1C(=O)N1CC(=O)Nc2cccnc21,-2.051,-2.067
O=C1COC2(COCCN(c3cnccn3)C2)CN1c1cccc(F)c1 (stereo not drawn),3.093,3.202
CC(SCCS(C)(=O)=O)c1nc(Cc2ccccc2)no1 (stereo not drawn),-1.538,0.7453
Cc1noc(C)c1CN(C)C(=O)C1CCN(S(N)(=O)=O)CC1,4.902,-1.914
CCOc1ccnc(N2CCN(C(=O)c3cccnc3)CC2)n1,2.89,-4.824
Cc1nn(C)cc1-c1ccnc(N2CCSCC2)n1,3.352,1.542
CCC(=O)N1CSCC1C(=O)N(C)CCc1ccccc1 (stereo not drawn),-2.02,4.862
CN(C)C(C)(C)CNCc1c[nH]nc1-c1cc2ccccc2o1,4.867,4.907
CCc1c(C)nc2n(c1=O)CC(C(=O)Nc1nc3c(s1)CCCC3)CS2 (stereo not drawn),2.174,-0.8872
CC(C)c1noc(OCC(=O)N2CCCCC2C)n1 (stereo not drawn),8.995,6.163
Cc1ccc(CNC(=O)N2CCN(S(C)(=O)=O)CC2)n1C,12.07,-11.59
O=C(NC1CCC(O)CC1)c1cnc2c(cnn2C2CCCC2)c1 (stereo not drawn),1.111,5.882
CCSc1ncc(Cl)c(C(=O)NC(CCSC)C(=O)O)n1 (stereo not drawn),2.312,0.6135
CCN(CC)C(=O)CN(C)C1CCc2ccccc21 (stereo not drawn),2.662,5.319

For reference, 5 entries once more:

structure,TcHisRS,CoaBC
CCc1c(C)nc2n(c1=O)CC(C(=O)Nc1nc3c(s1)CCCC3)CS2 (stereo not drawn),2.174,-0.8872
c1ccc2sc(CN3CCOC(Cn4cncn4)C3)nc2c1 (stereo not drawn),6.015,2.254
CC(C)c1noc(OCC(=O)N2CCCCC2C)n1 (stereo not drawn),8.995,6.163
O=C(C[C@H]1[C@H]2CN(C(=O)CO)C[C@@H]12)Nc1cccnc1,0,3.87
Cc1nn(C)c(Cl)c1C1CCCN1C(=O)c1ccc[nH]1 (stereo not drawn),-0.2865,1.615